Experimental data published in paper PMC12781872.
No constants are given. Whether binding was seen depends on the method and setting. Some binding calls cover weakened binding; strength is not graded here.

Protein sequences, listed by entry. Tags and fused reporters are not part of them. Lines headed by an entry give the natural chain unless they say otherwise; changes in a name come on top.
UniProt P9WGZ1: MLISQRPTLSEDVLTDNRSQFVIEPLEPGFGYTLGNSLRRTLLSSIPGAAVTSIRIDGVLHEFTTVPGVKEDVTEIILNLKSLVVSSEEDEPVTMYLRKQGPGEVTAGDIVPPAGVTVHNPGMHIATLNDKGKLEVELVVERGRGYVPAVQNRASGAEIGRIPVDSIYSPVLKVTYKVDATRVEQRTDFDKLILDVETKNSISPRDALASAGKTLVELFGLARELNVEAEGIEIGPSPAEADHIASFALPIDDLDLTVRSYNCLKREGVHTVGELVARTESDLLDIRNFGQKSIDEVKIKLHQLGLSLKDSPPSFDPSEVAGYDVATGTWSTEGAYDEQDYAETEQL
UniProt P9WGI1: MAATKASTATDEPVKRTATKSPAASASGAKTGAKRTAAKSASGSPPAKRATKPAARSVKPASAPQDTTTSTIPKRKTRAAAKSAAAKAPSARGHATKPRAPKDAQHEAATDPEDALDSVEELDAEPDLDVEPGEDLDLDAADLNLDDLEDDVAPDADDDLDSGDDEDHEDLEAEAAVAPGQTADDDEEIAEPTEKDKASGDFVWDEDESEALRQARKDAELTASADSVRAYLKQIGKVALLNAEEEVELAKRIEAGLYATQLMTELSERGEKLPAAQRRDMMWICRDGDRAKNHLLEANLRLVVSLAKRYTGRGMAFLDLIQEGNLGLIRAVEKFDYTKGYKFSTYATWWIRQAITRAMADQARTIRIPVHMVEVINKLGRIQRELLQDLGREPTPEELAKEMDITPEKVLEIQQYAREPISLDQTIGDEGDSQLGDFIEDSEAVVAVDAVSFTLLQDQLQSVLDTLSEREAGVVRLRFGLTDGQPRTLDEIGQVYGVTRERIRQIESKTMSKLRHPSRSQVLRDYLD
UniProt P9WHJ5: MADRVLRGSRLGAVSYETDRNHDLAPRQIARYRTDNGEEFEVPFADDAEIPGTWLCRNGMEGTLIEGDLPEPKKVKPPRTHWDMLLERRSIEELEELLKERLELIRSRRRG

What was measured:
[1] = target: Mycobacterium tuberculosis RNA polymerase core (α2ββ'ω), wildtype (Mycobacterium tuberculosis) (UniProt P9WGZ1); experiment: native gel or EMSA; both purified
[2] = target: Mtb RNAP-σ^A holoenzyme (α2ββ'ω σ^A) (Mycobacterium tuberculosis) (UniProt P9WGZ1); experiment: native gel or EMSA; both purified

Substance | binding [1] | binding [2]
Alexafluor-488 labelled Mtb σ^A (from UniProt P9WGI1 1-528) | binds | 
Mtb RbpA (from UniProt P9WHJ5 1-111) |  | binds
